# These are yes or no findings as the source states them, for the method shown. Some binding calls cover weakened binding; strength is not graded here.
# By UniProt entry, the sequences of proteins in these tests, tags left out. Where a name states a change or a piece, a line headed by the entry shows the natural chain unless it says otherwise. Residues count along the entry.
# UniProt P32890, residues 22-124: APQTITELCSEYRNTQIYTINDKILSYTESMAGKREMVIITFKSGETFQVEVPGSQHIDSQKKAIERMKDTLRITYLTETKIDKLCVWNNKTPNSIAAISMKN
# UniProt P06717: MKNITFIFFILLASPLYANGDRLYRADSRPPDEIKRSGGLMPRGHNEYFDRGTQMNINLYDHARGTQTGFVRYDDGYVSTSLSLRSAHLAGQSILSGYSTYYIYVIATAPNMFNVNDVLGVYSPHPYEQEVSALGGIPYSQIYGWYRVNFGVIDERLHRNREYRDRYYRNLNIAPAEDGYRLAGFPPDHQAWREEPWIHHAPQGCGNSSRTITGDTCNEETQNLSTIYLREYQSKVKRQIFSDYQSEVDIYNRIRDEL
# Molecular target: E. coli heat labile toxin subunit B (B pentamer) (Escherichia coli) (UniProt P32890)
# Assay: gel filtration on Superdex 200HR column, assembly of A subunit with B pentamer
substance,measurement,value
"E. coli heat labile toxin subunit A, wild-type (A subunit of wild-type LT) (from UniProt P06717 19-258) (enzyme)",binding,binds

# Source: US7115730
